Reference: PubChem BioAssay AID624415 (National Center for Advancing Translational Sciences (NCATS), 2012)
The campaign covered roughly 390,000 compounds. About 60 (0.02%) were called active. Inconclusive means that the source gave no clear call. Such entries were picked first, then a sample of the others. No stated cut-off is given here; in the data, active means activity change below about -50%; inconclusive means between about -30% and that limit; inactive means weaker than that.

Amino acid sequences for entries named in this document (tags omitted).
UniProt Q9GZU1, whole entry, looked up: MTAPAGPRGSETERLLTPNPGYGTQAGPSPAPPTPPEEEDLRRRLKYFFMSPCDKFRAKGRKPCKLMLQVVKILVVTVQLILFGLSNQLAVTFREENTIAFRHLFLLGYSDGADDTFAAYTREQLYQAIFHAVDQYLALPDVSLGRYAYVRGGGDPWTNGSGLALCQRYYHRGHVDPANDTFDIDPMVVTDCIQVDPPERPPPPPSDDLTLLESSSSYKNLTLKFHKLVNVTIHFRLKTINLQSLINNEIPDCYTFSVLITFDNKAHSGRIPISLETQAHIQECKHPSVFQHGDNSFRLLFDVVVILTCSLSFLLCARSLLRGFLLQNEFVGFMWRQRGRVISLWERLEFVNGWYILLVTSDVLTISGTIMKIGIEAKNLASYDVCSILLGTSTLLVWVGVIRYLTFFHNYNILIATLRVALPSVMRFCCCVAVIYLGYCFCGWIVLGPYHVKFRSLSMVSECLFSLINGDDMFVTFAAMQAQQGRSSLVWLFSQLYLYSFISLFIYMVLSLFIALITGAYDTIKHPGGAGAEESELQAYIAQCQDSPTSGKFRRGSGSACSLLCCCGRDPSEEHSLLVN

Biological target: Mucolipin-1 (Homo sapiens) (UniProt Q9GZU1)
Experiment: qHTS for Inhibitors of the Human Mucolipin Transient Receptor Potential 1 (TRPML1);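 further: stimulus is agonist 54-4 at its EC80 concentration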
Settings: TRPML1-inducible cells, Ca2+ dye fluorescence, FDSS; hits give low values; inhibition of EC80 agonist-evoked calcium signal
Summary of the method: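 Calcium fluorescence in TRPML1-DL cells induced overnight with Tet: a 110 s read after compound pin addition, then a 110 s antagonist read after challenge with 54-4 at 4 uM final (EC80).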
On the % scale 0 is the no-effect control and ±100 the full control effect.

SMILES	activity change, negative = inhibition
Cc1oc2c(c1C(=O)c1ccc(Cl)cc1)C(=O)C(=O)c1ccccc1-2	inactive: -6%
Cc1cc(C(=O)COC(=O)c2cccnc2Cl)c(C)n1-c1c(C)n(C)n(-c2ccccc2)c1=O	inconclusive: -30.2%
O=c1/c(=C\c2cc([N+](=O)[O-])cc([N+](=O)[O-])c2O)sc2nc3ccccc3n12	inconclusive: -36.5%
COc1ccc(C2/C=C\CN(Cc3ccco3)C(C)C(=O)N2Cc2ccc(F)cc2)cc1 (stereo unspecified)	inactive: 19.9%
COc1cc(/C=C(/C#N)c2nc3ccccc3[nH]2)ccc1OCC(=O)Nc1ccccc1C(C)C	inconclusive: -34.4%
Cn1cccc1CNC1CCCCC1	inactive: 7.34%
Cc1ccc(S(=O)(=O)c2nc(S(C)(=O)=O)sc2N2CCC(C)CC2)cc1	inconclusive: -37.6%
Cc1ccc(NN2C(=O)C=C(c3ccc(Cl)cc3)C2=O)cc1	inactive: 3.49%
COc1ccc(-c2cn3nc(SCC(=O)Nc4cccc(C)c4C)ccc3n2)cc1	inactive: 47.4%
COc1ccc(-c2cc(C(F)(F)F)nc(SCC(=O)NC(C)c3ccccc3)n2)cc1 (stereo unspecified)	inactive: -4.4%
CCOc1ccc(NC(=O)C(C)NS(=O)(=O)c2ccc(NC(C)=O)cc2)cc1 (stereo unspecified)	inconclusive: -31.3%
COc1ccc(CN(C)C(=S)Nc2ccc(Cl)cc2)cc1	inconclusive: -30.7%
Cc1nn(-c2ccccc2)c2nc(C3CC3)cc(C(=O)Nc3cccc(F)c3)c12	inactive: -7.92%
Cc1ccc(S(=O)(=O)Nc2cccc(C(=O)NCC3(N4CCCCC4)CCCCC3)c2)cc1F	inactive: -1.06%
COc1cc(C(=O)N/C(=C\c2cn(C)c3ccccc23)C(=O)NCCCN2CCOCC2)cc(OC)c1OC	inconclusive: -39.3%
CCN(CC)CCCNC(=O)c1sc2nc3n(c(=O)c2c1C)CCCCC3	inconclusive: -35.3%
CN1CCN(C2=CC3=CC(=C(C#N)C#N)CCC3CC2)CC1 (stereo unspecified)	active: -70.7%
Cc1ccc(S(=O)(=O)N2CCCC(C(=O)NCC3CCCO3)C2)cc1 (stereo unspecified)	inconclusive: -35.6%
CCOc1ccc(CCNC(=O)CN2C(=O)CCSc3ccccc32)cc1OCC	inactive: 3.09%
CCOC(=O)C1(CCOc2ccccc2)CCN(Cc2ccc3c(c2)OCCO3)CC1	inconclusive: -33.1%
O=C(CC1SC(=Nc2ccccc2)N(Cc2ccccn2)C1=O)Nc1cccc(Cl)c1 (stereo unspecified)	inconclusive: -30.7%
Cc1cccc(Cn2c(SCc3ccc(C(=O)NC4CCCCC4)cc3)nc3ccncc32)c1	inconclusive: -38.2%

SMILES	activity change, negative = inhibition
O=C(CN1C(=O)CSc2ncccc21)Nc1cccc(Cl)c1	inactive: -0.0675%
O=C(Nc1ccccc1F)c1ccc(C(=O)c2ccccc2)cc1	inactive: -4.49%
COc1ccc(OC)c(CCNC(=O)c2cc3c(=O)n(C)c4ccccc4c3n2C)c1	inconclusive: -31.5%
O=C(N/N=C/c1ccccc1Br)c1ccc(CSc2cccc3cccnc23)cc1	inconclusive: -31.2%
O=C(CN1C(=O)C2C3C=CC(C3)C2C1=O)OCC(=O)c1ccc(Cl)c([N+](=O)[O-])c1 (stereo unspecified)	inactive: -3.97%
CSc1ccc(/C=N/N2CCN(Cc3ccccc3)CC2)cc1	inconclusive: -30.3%
N#Cc1nc(COc2ccc(Br)cc2)oc1N1CCN(Cc2ccccc2)CC1	inactive: 4.22%
C=C(C)CSc1nc2c(c(=O)[nH]c(=O)n2C)n1Cc1ccccc1	inconclusive: -32.8%
CCOc1ccc(NC(=O)Cn2c(CCC(=O)O)ccc2-c2ccc(C)cc2)cc1	inconclusive: -33.3%
CC(C)(C)c1ccc(S(=O)(=O)NCc2ccc(C(=O)N3CCOCC3)cc2)cc1	inconclusive: -40.9%
Nc1nc2ccc(Cc3ccncc3)cc2s1	inconclusive: -30.6%
CC1CC1C(=O)OCC(=O)NC(=O)c1ccc(C(C)(C)C)cc1 (stereo unspecified)	inactive: -5.41%
c1ccc2c(c1)OCCOCCOCCO2	inconclusive: -35.7%
O=c1[nH]c(=O)n(CCO)c2nnn(Cc3ccccc3)c12	inconclusive: -39.5%
O=C(c1ccc(Br)o1)N1CCN(CCOc2ccccc2)CC1	inconclusive: -37.2%
COC(=O)/C=C/COc1ccccc1[N+](=O)[O-]	inconclusive: -30.4%
O=S1(=O)CCC(S(=O)(=O)N2CCCCCC2)C1 (stereo unspecified)	inconclusive: -31%
CCCOc1ccc(S(=O)(=O)NCCN2CCOCC2)c2ccccc12	inconclusive: -31.1%
COc1ccc(OCC(O)CN2CCN(c3ccc(OC)cc3)CC2)cc1 (stereo unspecified)	inconclusive: -31.9%
CC(C)(C)C(=O)Cn1nnc(-c2ccc(C(F)(F)F)cc2)n1	inconclusive: -40.5%
CN1CCC(N(C)C(=S)NCCc2ccccc2)CC1	inconclusive: -47%
O=C(O)c1cc(NS(=O)(=O)c2ccc(N3CCOCC3)c([N+](=O)[O-])c2)cc(C(=O)O)c1	inconclusive: -32.6%

SMILES	activity change, negative = inhibition
OC(COc1c(F)cc(Br)cc1F)CN1CCOCC1 (stereo unspecified)	inconclusive: -37%
Cc1cc(C(F)(F)F)nc(CCNC(=O)C2CCC(=O)N(Cc3cccc(F)c3)C2)n1 (stereo unspecified)	inconclusive: -32.5%
Cn1ncc(N=Cc2ccccc2)c1C(=O)Nc1cccc(Cl)c1	inconclusive: -30.5%
Cc1ccc2cc(COC(=O)C3CCCO3)c(=O)[nH]c2c1 (stereo unspecified)	inconclusive: -30.6%
CCOC(=O)/C(C#N)=C/C=C1\C=Cc2ccccc2N1CC	inactive: 12.9%
CC(=O)Nc1ccc(C(=O)NCCCOC(C)C)cc1	inconclusive: -32.8%
O=C(NC1CCCC1)C1CCN(S(=O)(=O)N2CCCCC2)CC1	inconclusive: -43.3%
O=C(NC(=S)Nc1cccc2cc(O)ccc12)c1ccco1	active: -59.2%
c1ccc(COc2cccc(-c3cc4nc(NCCOc5ccccc5)ccn4n3)c2)cc1	inactive: 31.3%
CCOc1ccc(N(CC(=O)NC2CCCC2)C(=O)CCC(=O)Nc2nccs2)cc1	inactive: -1.08%
Cc1ccc(Cl)cc1N1CCN(C(=O)CCS(=O)(=O)c2cc(Br)cc3c2N(C(=O)C2CC2)CC3)CC1	inactive: 3.83%
Cc1sc2c(c1C)c(=O)n(CCc1ccccc1)c(=O)n2Cc1ccc(C(C)(C)C)cc1	inconclusive: -35.9%
CCCOc1ccc(C(=O)NNC(=S)NC(=O)c2ccco2)cc1	inactive: 1.12%
CCOC(=O)c1ccc(CN(Cc2ccccc2C)S(=O)(=O)c2ccc(C(C)(C)C)cc2)cc1	inconclusive: -36.5%
CC(C)n1c(SCC(=O)Nc2ccc(F)cc2)nc2c(oc3ccccc32)c1=O	inactive: 21.4%
Cc1ccc(CN2CCc3nc(N4CCN(C)CC4)ncc3C2)s1	inconclusive: -32.1%
C=CCNc1nc2c(c(=O)[nH]c(=O)n2C)n1CCCc1ccccc1	inconclusive: -43.9%
CCC1CN(C(=O)N2CCC(C(=O)NCc3ccccc3C)CC2)c2ccccc2O1 (stereo unspecified)	inconclusive: -41.1%
CC(C)N(Cc1ccccc1)C(=O)C1CCN(c2ncnc3c2nc2n3CCCCC2)CC1	inconclusive: -41.8%
O=C(O)CCN1CCc2ccccc2C1c1ccncc1 (stereo unspecified)	inactive: -3.79%
Cc1cc(NC(=O)CN2C(=O)c3ccccc3C2=O)no1	inconclusive: -31.1%
Cc1ccc(Cc2c(C3CCCCC3)nc3c4ccccc4ccn23)cc1	inconclusive: -36.1%

SMILES	activity change, negative = inhibition
O=C(CN1CCN(CC(=O)Nc2ccccc2F)CC1)Nc1cccc(F)c1	inconclusive: -36.4%
CCn1c(C(=O)N2CCCC(C(=O)N3CCN(c4cc(C)ccc4C)CC3)C2)cc2sccc21 (stereo unspecified)	inactive: -11.4%
CCCn1nnnc1SCC(=O)NC1CCCC1	inactive: -12.1%
CCCS(=O)(=O)NC(=O)C1(C)CCCN(C(=O)c2ccc(C(F)(F)F)nc2C)C1 (stereo unspecified)	inconclusive: -37.4%
CC(C)(C)C(=O)Nc1cccc(C(=O)OCc2cc(=O)n3nc(C4CCCCC4)sc3n2)c1	inconclusive: -31%
CS(=O)(=O)NC1CCN(Cc2ccccc2)CC1	inconclusive: -44.7%
Cc1oc(-c2nc3ccccc3n2C)cc1C(=O)c1ccccc1	inactive: 2.21%
CCCCN(C(=S)Nc1cccc(C)c1C)c1c(N)n(CCC)c(=O)[nH]c1=O	inconclusive: -36%
CC(C)Oc1ccc(N2CC(C(=O)Nc3ccccc3F)CC2=O)cc1 (stereo unspecified)	inconclusive: -34.9%
CC(=O)c1cccc(OC(=O)Oc2cccc(C(C)=O)c2)c1	inconclusive: -33.9%
COc1cccc(C(=O)NCC(=O)N/N=C/c2ccc3c(c2)OCO3)c1	inconclusive: -31.1%
O=C(Nc1cccc2ncccc12)c1ccco1	inconclusive: -30.3%
O=C1CCCCCC1C1(O)C(=O)Nc2ccccc21 (stereo unspecified)	inconclusive: -36.6%
CCc1ccc2c(c1)NC(c1cccnc1)=NC(c1ccc(C(C)(C)C)cc1)=N2	inconclusive: -33.7%
CC(C)c1cc(C(=O)OCC(=O)NC(=O)NCc2ccco2)c(O)c(C(C)C)c1	inactive: -11.1%
O=C(NCCCN1CCCC1)c1cc(Sc2ccc(F)cc2)nc2ccccc12	inactive: -5.29%
Cc1ccc(-n2ncc(C(=O)Nc3c(Cl)cccc3Cl)c2C2CCNCC2)cc1	inconclusive: -30.9%
O=C(Nc1ccc([N+](=O)[O-])cn1)c1cc(-c2cccc(Br)c2)nc2ccccc12	inconclusive: -33.4%
CCN(CC)S(=O)(=O)c1ccc2oc(Nc3ccccc3)nc2c1	inconclusive: -33.6%
Cc1ccc(C)c(NS(=O)(=O)c2c(C)[nH]c(C)c2C(=O)N2CCCCC2)c1	inconclusive: -35.4%

Exported as labelled records: part of the list above
CCCCN(C(=S)Nc1cccc(C)c1C)c1c(N)n(CCC)c(=O)[nH]c1=O
  activity change, negative = inhibition: inconclusive: -36%
CC(C)Oc1ccc(N2CC(C(=O)Nc3ccccc3F)CC2=O)cc1 (stereo unspecified)
  activity change, negative = inhibition: inconclusive: -34.9%
CC(=O)c1cccc(OC(=O)Oc2cccc(C(C)=O)c2)c1
  activity change, negative = inhibition: inconclusive: -33.9%
COc1cccc(C(=O)NCC(=O)N/N=C/c2ccc3c(c2)OCO3)c1
  activity change, negative = inhibition: inconclusive: -31.1%
